The supplement of paper PMC4635364
Counter-ions that a name gives are not always drawn. The list shows a part of the results. Single values are uncertain here, since repeats match poorly.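 Cells: ReNCell VM human fetal ventral-midbrain neural progenitors, differentiated mitogen-free. Blinded raters compared doublecortin-stained (early neurons) or tyrosine hydroxylase-stained (dopaminergic neurons) images with untreated wells, where 0 means no change. After repeats and both raters were averaged, compounds scoring 2 or above became hits for retesting.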

system: ReNCell VM; assay: neuronal differentiation score (DCX+ cell fraction vs untreated, manual image score) (score (-3 to 3)); higher = more neuronal differentiation; conditions: library: LOPAC; 2 uM; 2 weeks

Neuronal differentiation score, inactive:
NC(Cc1cccc(-c2ccccc2CP(=O)(O)O)c1)C(=O)O (stereo not drawn) [Phenylbenzene-omega-phosphono-alpha-amino acid] 0
N#C/C(=C/c1ccc(O)c(O)c1)C(=O)NCc1ccccc1 [Tyrphostin AG 490] 0
C=C(C)[C@@H]1CC=C(C(=O)O)CC1 [(-)-Perillic acid] 0
CO/N=C(\C(=O)N[C@@H]1C(=O)N2C(C(=O)O)=C(CSc3nc(=O)c(O)nn3C)CS[C@H]12)c1csc(N)n1 [Ceftriaxone sodium] 0
C[C@]12C=CC(=O)C=C1CC[C@@H]1C2=CC[C@]2(C)[C@@H](C(=O)CN3CCN(c4cc(N5CCCC5)nc(N5CCCC5)n4)CC3)CC[C@@H]12 0
N[C@H](C(=O)O)[C@H]1C[C@@H]1C(=O)O [(2S,1'S,2'S)-2-(carboxycyclopropyl)glycine] 0
C#CCn1c(=O)c2c(ncn2C)n(C)c1=O [3,7-Dimethyl-1-propargylxanthine] 0
CC(C)(C)NC[C@H](O)COc1nsnc1N1CCOCC1 [S(-)-Timolol maleate] 0

same assay, conditions: library: Prestwick; 2 uM; 2 weeks

Neuronal differentiation score, inactive:
CCCCCCCCCCCCCCCC[N+](C)(C)CCN(Cc1ccc(OC)cc1)c1ncccn1 [Thonzonium bromide] 0
O=C(O)CCC(=O)Nc1ccc(S(=O)(=O)Nc2nccs2)cc1 [Succinylsulfathiazole] 0
O=c1[nH]cc(F)c(=O)[nH]1 [5-fluorouracil] 0
C[C@]12CCC(=O)C=C1C=C[C@@H]1[C@@H]2CC[C@@]2(C)[C@H]1CC[C@@]21CCC(=O)O1 [Canrenone] 1

same assay, conditions: library: Spectrum; 2 uM; 2 weeks

Neuronal differentiation score, inactive:
CN(C)CCC=C1c2ccccc2C=Cc2ccccc21 0
O=[N+]([O-])c1ccc(O)c2ncccc12 0
CC(=O)Nc1ccc(C(=O)O)cc1 0
CN1CCC(=C2c3ccccc3Sc3ccccc32)CC1 0
Oc1ccc([C@H]2Oc3cc(O)cc(O)c3C[C@H]2O)cc1 0
CC(=O)O[C@]1(C(C)=O)CC[C@H]2[C@@H]3C=C(Cl)C4=CC(=O)CC[C@]4(C)[C@H]3CC[C@@]21C 0
C[C@]12CC[C@@H]3c4ccc(O)cc4CC[C@H]3[C@@H]1CCC2=O 0
C[C@@H](O)CN(CCN(C[C@@H](C)O)C[C@@H](C)O)C[C@@H](C)O 0
NC(CO)C(=O)NNCc1ccc(O)c(O)c1O (centres undefined) 0
Nc1ccn([C@@H]2O[C@H](CO)[C@@H](O)[C@@H]2O)c(=O)n1 0
NC[C@@H]1O[C@H](O[C@H]2[C@@H](O)[C@H](O[C@@H]3[C@@H](O)[C@H](N)C[C@H](N)[C@H]3O[C@H]3O[C@H](CO)[C@@H](O)[C@H](O)[C@H]3N)O[C@@H]2CO)[C@H](N)[C@@H](O)[C@@H]1O 0
O=C(CCCCCCC(=O)Nc1ccccc1)NO 0
C[C@](N)(Cc1ccc(O)cc1)C(=O)O [alpha-METHYL-L-TYROSINE] 0
O=C(CNC(=O)c1ccc(Cl)cc1)NO 0
COc1cc(/C=C/C(=O)CC(=O)/C=C/c2ccc(O)c(OC)c2)ccc1O 0
OC(Cn1cncn1)(Cn1cncn1)c1ccc(F)cc1F 0
Cc1c(C(=O)O)c(O)cc2c1C(=O)c1c(O)c([C@@H]3O[C@H](CO)[C@@H](O)[C@H](O)[C@H]3O)c(O)c(O)c1C2=O 0
